Test results published in the supplement of paper PMC8728848.
The other results are listed elsewhere or left out.

Legend:
Test in all cases: glycan array binding signal (z-score within array); higher = stronger binding
Conditions in all cases: glycan notation: IUPAC condensed, linker removed
[1] = biological target: GlcNAc(b1-3)Gal(b1-4)GlcNAc(b1-3)Gal(b1-4)GlcNAc(b1-3)GalNAc
Method in brief: (§1)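 Arrays were curated from the Consortium for Functional Glycomics database, 3228 in total, and kept only where the protein sequence was available. Binding is expressed as a within-array Z-score. This score was averaged across arrays of the same protein sequence at different concentrations or buffers and across linkers, and negative values can be read as non-binding.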

[2] = biological target: GlcNAc(b1-3)Gal(b1-4)GlcNAc(b1-3)GalNAc
Method in brief: as §1

[3] = biological target: GlcNAc(b1-3)Gal(b1-4)GlcNAc(b1-3)[GlcNAc(b1-3)Gal(b1-4)GlcNAc(b1-3)]GalNAc
Method in brief: as §1

[4] = biological target: GlcNAc(b1-3)Gal(b1-4)GlcNAc(b1-6)[Gal(b1-3)]GalNAc
Method in brief: as §1

[5] = biological target: GlcNAc(b1-3)Gal(b1-4)GlcNAc(b1-6)[GlcNAc(b1-3)Gal(b1-3)]GalNAc
Method in brief: as §1

[6] = biological target: GlcNAc(b1-3)Gal(b1-4)GlcNAc(b1-6)[GlcNAc(b1-3)]Gal(b1-4)GlcNAc
Method in brief: as §1

GlcNAc(b1-3)GalNAc = biological target: GlcNAc(b1-3)GalNAc
Method in brief: as §1

GlcNAc(b1-3)Man = biological target: GlcNAc(b1-3)Man
Method in brief: as §1

[7] = biological target: GlcNAc(b1-3)[GlcNAc(b1-4)][GlcNAc(b1-6)]GlcNAc
Method in brief: as §1

[8] = biological target: GlcNAc(b1-3)[GlcNAc(b1-6)]Gal(b1-4)GlcNAc
Method in brief: as §1

[9] = biological target: GlcNAc(b1-3)[GlcNAc(b1-6)]GalNAc
Method in brief: as §1

[10] = biological target: GlcNAc(b1-4)Gal(b1-4)GlcNAc
Method in brief: as §1

GlcNAc(b1-4)GlcNAc = biological target: GlcNAc(b1-4)GlcNAc
Method in brief: as §1

[11] = biological target: GlcNAc(b1-4)GlcNAc(b1-4)GlcNAc
Method in brief: as §1

[12] = biological target: GlcNAc(b1-4)GlcNAc(b1-4)GlcNAc(b1-4)GlcNAc(b1-4)GlcNAc
Method in brief: as §1

[13] = biological target: GlcNAc(b1-4)GlcNAc(b1-4)GlcNAc(b1-4)GlcNAc(b1-4)GlcNAc(b1-4)GlcNAc
Method in brief: as §1

[14] = biological target: GlcNAc(b1-4)[GlcNAc(b1-6)]GalNAc
Method in brief: as §1

[15] = biological target: GlcNAc(b1-6)Gal(b1-4)GlcNAc
Method in brief: as §1

GlcNAc(b1-6)GalNAc = biological target: GlcNAc(b1-6)GalNAc
Method in brief: as §1

[16] = biological target: GlcNAc6S(b1-3)Gal(b1-4)GlcNAc
Method in brief: as §1

Kdn(a2-3)Gal(b1-3)GalNAc = biological target: Kdn(a2-3)Gal(b1-3)GalNAc
Method in brief: as §1

Kdn(a2-3)Gal(b1-3)GlcNAc = biological target: Kdn(a2-3)Gal(b1-3)GlcNAc
Method in brief: as §1

Kdn(a2-3)Gal(b1-4)Glc = biological target: Kdn(a2-3)Gal(b1-4)Glc
Method in brief: as §1

Kdn(a2-3)Gal(b1-4)GlcNAc = biological target: Kdn(a2-3)Gal(b1-4)GlcNAc
Method in brief: as §1

[17] = biological target: Kdn(a2-3)Gal(b1-4)[Fuc(a1-3)]GlcNAc
Method in brief: as §1

Kdn(a2-6)Gal(b1-4)GlcNAc = biological target: Kdn(a2-6)Gal(b1-4)GlcNAc
Method in brief: as §1

[18] = biological target: Man(a1-2)Man(a1-2)Man(a1-3)Man
Method in brief: as §1

[19] = biological target: Man(a1-2)Man(a1-2)Man(a1-6)[Man(a1-3)]Man
Method in brief: as §1

Man(a1-2)Man(a1-3)Man = biological target: Man(a1-2)Man(a1-3)Man
Method in brief: as §1

[20] = biological target: Man(a1-2)Man(a1-3)[Man(a1-2)Man(a1-6)]Man
Method in brief: as §1

[21] = biological target: Man(a1-2)Man(a1-3)[Man(a1-2)Man(a1-6)]Man(a1-6)[Man(a1-2)Man(a1-2)Man(a1-3)]Man
Method in brief: as §1

[22] = biological target: Man(a1-2)Man(a1-3)[Man(a1-2)Man(a1-6)]Man(a1-6)[Man(a1-2)Man(a1-2)Man(a1-3)]Man(b1-4)GlcNAc(b1-4)GlcNAc
Method in brief: as §1

[23] = biological target: Man(a1-2)Man(a1-3)[Man(a1-6)]Man(a1-6)[Man(a1-2)Man(a1-3)]Man(b1-4)GlcNAc(b1-4)GlcNAc
Method in brief: as §1

[24] = biological target: Man(a1-2)Man(a1-6)[Man(a1-3)]Man(a1-6)[Man(a1-2)Man(a1-2)Man(a1-3)]Man
Method in brief: as §1

[25] = biological target: Man(a1-2)Man(a1-6)[Man(a1-3)]Man(a1-6)[Man(a1-2)Man(a1-2)Man(a1-3)]Man(b1-4)GlcNAc(b1-4)GlcNAc
Method in brief: as §1

Man(a1-3)[Man(a1-6)]Man = biological target: Man(a1-3)[Man(a1-6)]Man
Method in brief: as §1

[26] = biological target: Man(a1-3)[Man(a1-6)]Man(a1-6)[Man(a1-2)Man(a1-3)]Man(b1-4)GlcNAc(b1-4)GlcNAc
Method in brief: as §1

[27] = biological target: Man(a1-3)[Man(a1-6)]Man(a1-6)[Man(a1-3)]Man
Method in brief: as §1

[28] = biological target: Man(a1-3)[Man(a1-6)]Man(a1-6)[Man(a1-3)]Man(b1-4)GlcNAc(b1-4)GlcNAc
Method in brief: as §1

[29] = biological target: Man(a1-3)[Man(a1-6)]Man(b1-4)GlcNAc(b1-4)GlcNAc
Method in brief: as §1

[30] = biological target: Man(a1-3)[Man(a1-6)]Man(b1-4)GlcNAc(b1-4)[Fuc(a1-6)]GlcNAc
Method in brief: as §1

Man(a1-6)Man = biological target: Man(a1-6)Man
Method in brief: as §1

Man(b1-4)GlcNAc = biological target: Man(b1-4)GlcNAc
Method in brief: as §1

MurNAc(b1-4)GlcNAc = biological target: MurNAc(b1-4)GlcNAc
Method in brief: as §1

Neu5Ac(a2-3)Gal = biological target: Neu5Ac(a2-3)Gal
Method in brief: as §1

B1: Loc1 (Escherichia coli) (protein)
chain: APCALTNVGEQRGTYILKPLSMKGNLTAEKIENTGNIIECTDLQETTNAIKVHFLTQNALKFKVGSRHYIINFPFEYDGKKIELPGKSSYNLEEMLSAINFTIPYSIASVSDSSNTADIFPGTPFPLLFEIEVSSCTGNNTNCNSVRFNYNLNTILQVNLMTHHHHHH
[1]
  glycan array binding signal (z-score): 1.02
[2]
  glycan array binding signal (z-score): 0.574
[3]
  glycan array binding signal (z-score): -0.192
[4]
  glycan array binding signal (z-score): 0.218
[5]
  glycan array binding signal (z-score): 0.01
[6]
  glycan array binding signal (z-score): -0.002
GlcNAc(b1-3)GalNAc
  glycan array binding signal (z-score): -0.454
GlcNAc(b1-3)Man
  glycan array binding signal (z-score): -0.929
[7]
  glycan array binding signal (z-score): 0.666
[8]
  glycan array binding signal (z-score): 1.03
[9]
  glycan array binding signal (z-score): -0.181
[10]
  glycan array binding signal (z-score): -0.885
GlcNAc(b1-4)GlcNAc
  glycan array binding signal (z-score): -0.092
[11]
  glycan array binding signal (z-score): -0.7
[12]
  glycan array binding signal (z-score): 0.463
[13]
  glycan array binding signal (z-score): -0.432
[14]
  glycan array binding signal (z-score): -0.131
[15]
  glycan array binding signal (z-score): 0.324
GlcNAc(b1-6)GalNAc
  glycan array binding signal (z-score): -0.645
[16]
  glycan array binding signal (z-score): 0.039
Kdn(a2-3)Gal(b1-3)GalNAc
  glycan array binding signal (z-score): -0.831
Kdn(a2-3)Gal(b1-3)GlcNAc
  glycan array binding signal (z-score): -0.793
Kdn(a2-3)Gal(b1-4)Glc
  glycan array binding signal (z-score): -0.368
Kdn(a2-3)Gal(b1-4)GlcNAc
  glycan array binding signal (z-score): 0.179
[17]
  glycan array binding signal (z-score): -0.405
Kdn(a2-6)Gal(b1-4)GlcNAc
  glycan array binding signal (z-score): -0.921
[18]
  glycan array binding signal (z-score): -0.032
[19]
  glycan array binding signal (z-score): 0.249
Man(a1-2)Man(a1-3)Man
  glycan array binding signal (z-score): 0.82
[20]
  glycan array binding signal (z-score): 0.531
[21]
  glycan array binding signal (z-score): -0.121
[22]
  glycan array binding signal (z-score): -0.687
[23]
  glycan array binding signal (z-score): -0.074
[24]
  glycan array binding signal (z-score): -1.02
[25]
  glycan array binding signal (z-score): -1.09
Man(a1-3)[Man(a1-6)]Man
  glycan array binding signal (z-score): -0.118
[26]
  glycan array binding signal (z-score): -0.042
[27]
  glycan array binding signal (z-score): -0.761
[28]
  glycan array binding signal (z-score): 0.131
[29]
  glycan array binding signal (z-score): 0.959
[30]
  glycan array binding signal (z-score): -1.1
Man(a1-6)Man
  glycan array binding signal (z-score): 0.766
Man(b1-4)GlcNAc
  glycan array binding signal (z-score): -0.219
MurNAc(b1-4)GlcNAc
  glycan array binding signal (z-score): -0.533
Neu5Ac(a2-3)Gal
  glycan array binding signal (z-score): -0.225
